The record followed here is paper PMC5045193.

These are yes or no findings as the source states them, for the method shown. In cells and extracts the contact can be indirect. Some results given as binding are weak or reduced against the parent protein; the word gives no strength. Where a sequence is shown, tags or fusion partners need not be part of it.

The target in experiment [1] is T1, SZY-20-GFP-3xFLAG (C. elegans) (UniProt G5EGU9).
T1 sequence: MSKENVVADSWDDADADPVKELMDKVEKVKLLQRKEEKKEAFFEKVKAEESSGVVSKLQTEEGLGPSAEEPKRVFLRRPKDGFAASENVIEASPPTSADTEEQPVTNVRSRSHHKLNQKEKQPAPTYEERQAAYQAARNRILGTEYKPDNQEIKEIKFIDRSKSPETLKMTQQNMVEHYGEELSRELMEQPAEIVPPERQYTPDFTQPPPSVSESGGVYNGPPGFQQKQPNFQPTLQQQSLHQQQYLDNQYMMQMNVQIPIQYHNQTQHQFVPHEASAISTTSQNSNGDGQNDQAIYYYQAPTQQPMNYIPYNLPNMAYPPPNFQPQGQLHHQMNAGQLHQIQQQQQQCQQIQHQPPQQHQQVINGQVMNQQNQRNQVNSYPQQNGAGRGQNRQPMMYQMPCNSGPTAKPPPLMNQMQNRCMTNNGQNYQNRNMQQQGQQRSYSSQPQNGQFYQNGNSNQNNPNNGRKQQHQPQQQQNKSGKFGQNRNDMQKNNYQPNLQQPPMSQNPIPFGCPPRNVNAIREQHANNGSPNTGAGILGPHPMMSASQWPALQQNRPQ
Briefly: co-IP; anti-GFP IP from SZY-20-GFP embryonic lysates mixed with N2, szy-20(bs52) or atx-2(ne4297) lysates; western blot. A general note: A western blot detects proteins with antibodies after separation by electrophoresis.

The target in experiment [2] is T2, PAB-1-GFP (C. elegans) (UniProt Q9U302).
T2 sequence: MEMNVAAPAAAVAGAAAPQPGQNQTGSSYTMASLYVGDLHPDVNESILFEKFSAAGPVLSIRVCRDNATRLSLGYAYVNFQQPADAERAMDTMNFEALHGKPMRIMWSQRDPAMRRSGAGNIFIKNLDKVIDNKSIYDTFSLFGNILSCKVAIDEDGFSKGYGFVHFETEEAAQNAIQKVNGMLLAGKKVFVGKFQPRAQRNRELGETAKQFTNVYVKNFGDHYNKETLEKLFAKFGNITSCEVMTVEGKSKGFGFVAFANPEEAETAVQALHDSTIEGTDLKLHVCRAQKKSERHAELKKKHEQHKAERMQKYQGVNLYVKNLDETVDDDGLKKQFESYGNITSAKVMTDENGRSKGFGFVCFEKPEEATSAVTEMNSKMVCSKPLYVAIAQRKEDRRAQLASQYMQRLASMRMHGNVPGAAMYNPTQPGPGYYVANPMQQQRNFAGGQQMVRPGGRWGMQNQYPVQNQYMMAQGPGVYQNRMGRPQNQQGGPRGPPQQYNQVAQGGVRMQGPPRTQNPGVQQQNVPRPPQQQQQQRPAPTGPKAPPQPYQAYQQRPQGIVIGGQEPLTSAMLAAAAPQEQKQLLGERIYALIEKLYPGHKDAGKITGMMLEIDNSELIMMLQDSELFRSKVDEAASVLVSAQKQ
Kind of experiment: co-IP; anti-GFP IP from embryonic lysates of strains expressing GFP fused to the C-terminus of SZY-20, PAB-1, ATX-2 or RPN-12; N2 and RPN-12-GFP as negative controls; western blot.

For experiment [3], the target named is T3, RPN-12-GFP (C. elegans) (UniProt Q23449).
T3 sequence: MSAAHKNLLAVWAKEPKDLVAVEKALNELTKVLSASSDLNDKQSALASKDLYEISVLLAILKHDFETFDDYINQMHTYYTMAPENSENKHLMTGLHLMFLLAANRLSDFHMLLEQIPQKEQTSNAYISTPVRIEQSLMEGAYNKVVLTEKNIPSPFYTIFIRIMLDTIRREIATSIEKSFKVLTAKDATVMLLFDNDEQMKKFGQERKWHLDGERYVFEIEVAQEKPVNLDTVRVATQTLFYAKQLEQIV
Described as above.

B1: SZY-20 (protein, UniProt G5EGU9 1-558)
chain: T1 sequence
Take B1: the binding result in experiment [1] is on record as “binds”; in experiment [2], “binds”; in experiment [3], “no binding”.

B2: ATX-2 (protein, UniProt G5ED29 1-959)
chain: MSTPTGLPALNGDVLSAINDMIGRVIIINTTDKKRYSGVLGAVSQDFDFGMQCVVEITKENENNLLRTESECRDKMVFHYSDIVDFAYVTQEIKKQHAVSKFVTDRQYHGDTPIEGEELQEWNGGEEDGLGGSIEDDVVVAGGQTAARRSNNHNNGTGWSVNDMFAANEKMNVVSTFKEDLTQYTTVEVVGTDEDRARAERLAREIESNSSSKFMANLENDDDERDLDKITRQEDFENGNGRKRNNNSFNQQQQQRRNPNIAPNGQPVNRRAEGLRGDRRNSGSSSANNSRYGAPAAAQQNYSQNQQQQQGQKGYRRQNEENDWQMAKGKGQNQGHDHSFRQQQKQMLDPRPNNNVKPADDKAQSATTATAAAGGSRVTDLKNWGNEFSIATAPKDQAPAVPAGNSGSAWNRGPPSSLVAKGSSNESTPPPTTNGEEAETKKEEAPSTSVDVAAAPVQNVQNDAEKHQEDDNVSVTSENDSVITSKSSSFKFNINAPEFKPRVAPATPTATTPVQNEYHPQQQPHPAMMAPQQGPPAPGMGMVPPHMGGPQNQGQPPMMMWQQTGQQQQGGGGYPQNHQFPIQHVPMQGVPGQMYGPGAATPVTVAQQPNQQHQVPTSAAGGQNHQLRDGEYREKQPLYMPYGPPQMVPVTSQQFYHSQYQGQMQQAAPYQMKMMPQQAPQGAYQQRYQQPQVYMMPPQGQQQQPRYQGPPPPQQQQQQQPQQQQFSGEQSRPQSHPNSQPTTPGPRGELPKMSGAPQNGNMQAESSSNASHSGSTSSQSGQRSGSPPGAVPPPPPPQQQHQQQQHPPHHAPPHVGAPPPQMMQQQQQHIQQYMVMQGPHQMHPQIPNYYQQPQQVFYPMIMPQQMPMQQNQHPQQSLMGERSDQGFPTSGYFDYRTMPNYQQQQQQQQQQMHRQNSLPQQFQGNQGVNPSGQQSGPPPPPPPSQQGTPRDQQHSQSPP
Consider B2, for which the binding entry is listed as “binds” in experiment [2] and “no binding” in experiment [3].
